Reference: PubChem BioAssay AID2685 (National Center for Advancing Translational Sciences (NCATS), 2010)
This is one part of the list. Further columns of the screen follow, without active or inactive calls. The list favours compounds with an active or inconclusive main result. Words in brackets tell the shape of the fitted curve; partial curves, single points and poor fits give uncertain potencies.

Assay: qHTS Assay for Lipid Storage Modulators in Drosophila S3 Cells;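 on cell number change: cells counted by Cell Tracker Red CMTPX staining in the red channel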
Settings: BODIPY lipid droplet fluorescence, 18-24 h; for cell number change: measured here: cell count max response, cells fed with added oleic acid
Summary of the method: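 Drosophila S3 cells got compounds at several concentrations plus oleic acid (400 uM solution). Laser-scanning cytometry with 488 nm excitation read lipid droplets at 500-530 nm and cells at 575-640 nm. Percent activity was relative to 20 uM Triacsin C.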

[1] = measured here: lipid fluorescence (Fed channel) AC50, cells fed with added oleic acid
[2] = measured here: cell number channel AC50, cells fed with added oleic acid

Compound	cell number change [%]	AC50 [1]	AC50 [2]
COc1cc2c(cc1OC)C(c1cccs1)CC(=O)N2 (stereo not given)	10.4	25.9 µM [falling, single point]	–
COCCN(CC(=O)Nc1cccc(C)c1C)C(=O)c1cc(-c2cccs2)nn1-c1ccccc1	2.46	3.66 µM [falling, single point]	–
CCOC(=O)c1oc2nc(C)c3c(c2c1N)CC(C)(C)OC3	74.8	0.259 µM [rising, partial curve]	4.61 µM [rising, partial curve]
O=C(O)C1C2CCC(C2)C1C(=O)N1CCCC1 (stereo not given)	-10.2	20.6 µM [rising, partial curve]	–
O=C(NN1CCCCC1)c1ccc(COc2ccc(Cl)cc2)cc1	36.5	20.6 µM [rising, single point]	23.1 µM [rising, single point]
CCn1cc(C(=O)Nc2ccccc2C(=O)OC)c(=O)c2ccc(C)nc21	-3.43	–	–
Cc1nnc(Sc2c(N)n(C)c(=O)[nH]c2=O)s1	0.833	4.61 µM [falling, full curve]	–
Cc1cc(NC(=O)/C=C/c2cccc(F)c2)n(-c2nc3ccccc3[nH]2)n1	-7.7	2.31 µM [rising, single point]	–
COc1ccc(Cl)cc1N(CC(=O)N1CCN(Cc2ccccc2)CC1)S(C)(=O)=O	1.29	0.00461 µM [falling, full curve, poor fit]	–
COc1cccc(Cn2nnc(C(=O)NCc3ccc4c(c3)OCO4)c2N)c1	64.2	–	–
Cc1cc(C(=O)OCC(=O)N(CC(C)C)c2c(N)n(Cc3ccccc3)c(=O)[nH]c2=O)c(C)o1	65.5	–	23.1 µM [rising, single point]
Cc1ccc(-c2cccc(C(=O)NCc3ccccc3)n2)c2ccccc12	-21	29.1 µM [falling, single point]	–
CCC(C(=O)OCC(=O)Nc1cccc(C(C)=O)c1)c1ccccc1 (stereo not given)	–	0.461 µM [rising, full curve, poor fit]	–
CC(=O)N(C)c1ccc(OCC(O)Cn2c3ccc(Cl)cc3c3cc(Cl)ccc32)cc1 (stereo not given)	-15.9	29.1 µM [falling, single point]	–
Fc1ccc(Nc2nnns2)cc1	-39.7	29.1 µM [falling, single point]	29.1 µM [falling, single point]
O=C(/C=C\c1ccccc1)Oc1cccc2cccnc12	-30	–	0.731 µM [falling, full curve, poor fit]
O=C(COC(=O)c1ccc(Cl)c(S(=O)(=O)NCc2ccccc2)c1)NC1CC1	-2.51	29.1 µM [rising, single point]	–
Cc1n[nH]c(C)c1CCOc1ccc(C(C)C)cc1	-18.6	0.103 µM [falling, full curve, poor fit]	0.058 µM [falling, full curve, poor fit]
COc1ccc(-n2nnc3c(SCC(=O)NCc4ccco4)ncnc32)cc1	-32.1	–	23.1 µM [falling, single point]

Compound	cell number change [%]	AC50 [1]	AC50 [2]
CC(C)N(C(=O)CN1C(=O)NC(c2ccccc2)(c2ccccc2)C1=O)C(C)C	11.2	–	–
COc1cc(/C=C/C(=O)OCC(=O)Nc2ccc(NC(C)=O)cc2)cc(S(=O)(=O)N2CCc3ccccc32)c1OC	59.3	14.6 µM [rising, partial curve]	7.31 µM [rising, partial curve, poor fit]
COC(=O)CSc1nnc(C)c(=O)[nH]1	-15.4	–	–
COc1ccc(N2C(=O)CC(N3CCCC4CCCCC43)C2=O)cc1 (stereo not given)	-21.6	0.0164 µM [falling, full curve, poor fit]	–
NC1=NC(=O)/C(=C\c2ccc(O)c([N+](=O)[O-])c2)S1	15.7	1.64 µM [rising, full curve]	–
COC(=O)c1ccc(N2CCOCC2)c(NC(=O)c2ccc3c(c2)OCCO3)c1	10.8	0.0184 µM [rising, full curve, poor fit]	–
CNc1ccc(Br)cc(C(=O)/C=C/c2ccc3c(c2)OCO3)c1=O	-0.377	18.4 µM [falling, single point]	–
Cn1c(-c2ccc(CN3CCCCC3)o2)nc2ccccc21	3.22	–	–
O=c1c2ccccc2nc2ccc(NCc3ccco3)nn12	-34.3	8.2 µM [falling, partial curve, poor fit]	8.2 µM [falling, partial curve, poor fit]
CCOc1ccc(NS(=O)(=O)c2ccc(NC(=O)C3CC3)cc2)cc1	24.9	6.51 µM [rising, single point]	–
O=C1OCC(c2ccccc2)=C1c1ccccc1	–	2.91 µM [falling, single point]	–
COc1cc(/C=C(\C#N)C(=O)N2CCOCC2)cc(Br)c1O	-21	32.6 µM [falling, single point]	1.84 µM [rising, partial curve]
COCCN(C(=O)COC(=O)C1CC1C)c1c(N)n(Cc2ccccc2)c(=O)[nH]c1=O (stereo not given)	-19.3	–	0.82 µM [falling, full curve]
Cc1cccc(N(C(=O)CNC(=O)c2ccco2)C(C(=O)NC2CCCC2)c2cccnc2)c1C (stereo not given)	-6.41	0.116 µM [rising, single point]	–
CCC(C)C(N=C1NS(=O)(=O)c2ccccc21)C(=O)N1CCC(C)CC1 (stereo not given)	–	–	7.31 µM [falling, partial curve, poor fit]
O=C(NC(=S)Nc1ccc(Cl)c(C(=O)O)c1)c1cncc(Br)c1	12.5	6.51 µM [falling, single point]	0.259 µM [rising, full curve, poor fit]
CC1(C)CC2C1CCC1(O)CC2(C)CCC1N(O)c1ccc(C(=O)NCCO)cn1 (stereo not given)	-13.2	6.51 µM [rising, single point]	–
COc1ccc(/C=C2\OC(=S)N(C)C2=O)cc1	-26	29.1 µM [falling, single point]	–
c1ccc(CSc2nnc(-c3c[nH]c4ccccc34)o2)cc1	-111	18.4 µM [falling, single point]	16.4 µM [falling, partial curve]

Compound	cell number change [%]	AC50 [1]	AC50 [2]
Cn1c(=O)c2cc(S(=O)(=O)NCCC(=O)NCCC3=CCCCC3)ccc2n(C)c1=O	-32.3	–	–
COc1cccc(NC(=O)CSc2nc3ccccc3c(=O)n2CCCC(=O)N2CCCC2)c1	19.1	1.64 µM [rising, partial curve, poor fit]	–
O=C1C=CC(O)(c2cc(=O)c3c(O)cc(O)cc3o2)C=C1	-85.7	7.31 µM [falling, partial curve]	14.6 µM [falling, partial curve]
O=C(CSc1nnnn1Cc1ccccc1)NCCc1ccccc1	113	29.1 µM [rising, single point]	29.1 µM [rising, single point]
CC(=NC(C)C)C1=C(O)CCC1=O	-55.9	18.4 µM [falling, single point]	5.17 µM [falling, full curve, poor fit]
CCc1c(C)n([O-])c2c([n+]1=O)CCC2	-138	–	–
O=C(Nc1ccc(-c2csc(Nc3cccc(C(F)(F)F)c3)n2)cc1)c1ccccc1	-53.6	29.1 µM [falling, single point]	29.1 µM [falling, single point]
Cc1nn(CC(=O)NCc2ccc(Cl)cc2)c(C)c1[N+](=O)[O-]	22.4	14.6 µM [falling, single point]	–
Cc1cc(C(=O)N/N=C/c2ccc(C)s2)n[nH]1	-4.76	–	–
O=C(N/N=C/c1ccccn1)c1cc(-c2ccc(Br)cc2)nc2ccccc12	-40.6	29.1 µM [falling, partial curve, poor fit]	32.6 µM [falling, single point]
CCC1CCCCN1Cc1ccc(CNC(=O)CCc2nnc3ccc(N4CCCCC4)nn23)o1 (stereo not given)	-2.29	29.1 µM [falling, single point]	–
COCCCNC(=O)CN1C(=O)CSc2ncccc21	-14.1	29.1 µM [falling, single point]	–
COc1ccc(-n2c(SCc3ccc([N+](=O)[O-])cc3)nnc2-c2ccccc2)cc1	10.6	23.1 µM [falling, partial curve]	–
CCSCc1nnc(SCC(=O)Nc2cc(F)ccc2C)n1C	3.82	29.1 µM [falling, partial curve, poor fit]	–
CCOc1cc(NC(=S)NCCCOC)c(OCC)cc1NC(=O)c1ccco1	2.89	0.13 µM [rising, full curve, poor fit]	–
CCOC(=O)Cc1csc(SCC(=O)Nc2ccc3[nH]c(=O)[nH]c3c2)n1	9.09	29.1 µM [falling, single point]	–
Cc1cc(C)cc(OCC(=O)Nc2cccc(C(=O)O)c2)c1	-48.2	20.6 µM [falling, partial curve]	29.1 µM [falling, single point]
CCc1cc2c(=O)c(-c3nc4ccccc4[nH]3)coc2c(CN2CCCCC2)c1O	38.9	29.1 µM [rising, partial curve, poor fit]	29.1 µM [rising, single point]
O=[N+]([O-])c1cc(-c2ccc(C(=S)N3CCOCC3)o2)ccc1Cl	-51.7	25.9 µM [falling, partial curve]	29.1 µM [falling, single point]

Retrieved one by one from above:
Compound	cell number change [%]	AC50 [1]	AC50 [2]
Cc1nn(CC(=O)NCc2ccc(Cl)cc2)c(C)c1[N+](=O)[O-]	22.4	14.6 µM [falling, single point]	–
COc1cc2c(cc1OC)C(c1cccs1)CC(=O)N2 (stereo not given)	10.4	25.9 µM [falling, single point]	–
